According to the supplement of paper PMC7661543:
The effect of the compound repeats well; differences between the knockouts mostly do not.

Tested on: HCC-38
Assay: relative cell number vs DMSO control (72 h) (% of DMSO); higher = less growth inhibition (more cells)
Procedure: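 QMAP-Seq: a pool of 5 breast cancer cell lines (ZR-75-1, SKBR3, HCC-38, MDA-MB-231, BT-20), each carrying 12 doxycycline-inducible Cas9 sgRNA perturbations (11 knockouts plus non-targeting sgNT), was treated with compounds for 72 h at four 10-fold doses (10 nM-10 uM or 1 nM-1 uM range). Barcodes were amplified and sequenced, and cell number was interpolated from 293T spike-in standard curves. The result is expressed as % of the median of DMSO wells. Two biological replicates.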

CC(=O)Nc1cccc(-n2c(=O)n(C3CC3)c(=O)c3c(Nc4ccc(I)cc4F)n(C)c(=O)c(C)c32)c1 [Trametinib]
Conditions	relative cell number
sgRNA knockout: sgATF3, 10 nM	97.3
sgRNA knockout: sgATF3, 100 nM	86.1
sgRNA knockout: sgATF3, 1000 nM	93
sgRNA knockout: sgATF3, 10000 nM	79.6
sgRNA knockout: sgATF4, 10 nM	99.59
sgRNA knockout: sgATF4, 100 nM	75.8
sgRNA knockout: sgATF4, 1000 nM	77.3
sgRNA knockout: sgATF4, 10000 nM	74.9
sgRNA knockout: sgATF6, 10 nM	104
sgRNA knockout: sgATF6, 100 nM	80
sgRNA knockout: sgATF6, 1000 nM	88.7
sgRNA knockout: sgATF6, 10000 nM	78.5
sgRNA knockout: sgATG7, 10 nM	91.8
sgRNA knockout: sgATG7, 100 nM	77.2
sgRNA knockout: sgATG7, 1000 nM	79.8
sgRNA knockout: sgATG7, 10000 nM	79.08
sgRNA knockout: sgERN1, 10 nM	99.9
sgRNA knockout: sgERN1, 100 nM	81.5
sgRNA knockout: sgERN1, 1000 nM	91.6
sgRNA knockout: sgERN1, 10000 nM	74.2
sgRNA knockout: sgHSF1, 10 nM	94.3
sgRNA knockout: sgHSF1, 100 nM	87.9
sgRNA knockout: sgHSF1, 1000 nM	84
sgRNA knockout: sgHSF1, 10000 nM	59.8
sgRNA knockout: sgHSF2, 10 nM	98.7
sgRNA knockout: sgHSF2, 100 nM	84.7
sgRNA knockout: sgHSF2, 1000 nM	91
sgRNA knockout: sgHSF2, 10000 nM	72.5
sgRNA knockout: sgKEAP1, 10 nM	84.95
sgRNA knockout: sgKEAP1, 100 nM	78.3
sgRNA knockout: sgKEAP1, 1000 nM	81.7
sgRNA knockout: sgKEAP1, 10000 nM	61.7
sgRNA knockout: sgNFE2L2, 10 nM	93.2
sgRNA knockout: sgNFE2L2, 100 nM	82.9
sgRNA knockout: sgNFE2L2, 1000 nM	77.7
sgRNA knockout: sgNFE2L2, 10000 nM	80.2
sgRNA knockout: sgSLC35F2, 10 nM	96.1
sgRNA knockout: sgSLC35F2, 100 nM	78.8
sgRNA knockout: sgSLC35F2, 1000 nM	82.1
sgRNA knockout: sgSLC35F2, 10000 nM	65.3
sgRNA knockout: sgXBP1, 10 nM	90.1
sgRNA knockout: sgXBP1, 100 nM	79.1
sgRNA knockout: sgXBP1, 1000 nM	86.9
sgRNA knockout: sgXBP1, 10000 nM	75.1

Nc1ccccc1NC(=O)c1ccc(CNC(=O)OCc2cccnc2)cc1 [Entinostat]
Conditions	relative cell number
sgRNA knockout: sgATF3, 10 nM	98.7
sgRNA knockout: sgATF3, 100 nM	102
sgRNA knockout: sgATF3, 1000 nM	63.4
sgRNA knockout: sgATF3, 10000 nM	36.1
sgRNA knockout: sgATF4, 10 nM	99.405
sgRNA knockout: sgATF4, 100 nM	106
sgRNA knockout: sgATF4, 1000 nM	66.3
sgRNA knockout: sgATF4, 10000 nM	34.2
sgRNA knockout: sgATF6, 10 nM	82.3
sgRNA knockout: sgATF6, 100 nM	119
sgRNA knockout: sgATF6, 1000 nM	57.9
sgRNA knockout: sgATF6, 10000 nM	30.3
sgRNA knockout: sgATG7, 10 nM	103.98
sgRNA knockout: sgATG7, 100 nM	106
sgRNA knockout: sgATG7, 1000 nM	61.8
sgRNA knockout: sgATG7, 10000 nM	30.6
sgRNA knockout: sgERN1, 10 nM	98.8
sgRNA knockout: sgERN1, 100 nM	104
sgRNA knockout: sgERN1, 1000 nM	54.9
sgRNA knockout: sgERN1, 10000 nM	34.8
sgRNA knockout: sgHSF1, 10 nM	98.9
sgRNA knockout: sgHSF1, 100 nM	123
sgRNA knockout: sgHSF1, 1000 nM	59.8
sgRNA knockout: sgHSF1, 10000 nM	35.6
sgRNA knockout: sgHSF2, 10 nM	94.6
sgRNA knockout: sgHSF2, 100 nM	113
sgRNA knockout: sgHSF2, 1000 nM	60.1
sgRNA knockout: sgHSF2, 10000 nM	38.9
sgRNA knockout: sgKEAP1, 10 nM	99.4
sgRNA knockout: sgKEAP1, 100 nM	122
sgRNA knockout: sgKEAP1, 1000 nM	57.9
sgRNA knockout: sgKEAP1, 10000 nM	33.9
sgRNA knockout: sgNFE2L2, 10 nM	100.1
sgRNA knockout: sgNFE2L2, 100 nM	101
sgRNA knockout: sgNFE2L2, 1000 nM	67.7
sgRNA knockout: sgNFE2L2, 10000 nM	32.6
sgRNA knockout: sgSLC35F2, 10 nM	102
sgRNA knockout: sgSLC35F2, 100 nM	105
sgRNA knockout: sgSLC35F2, 1000 nM	67.5
sgRNA knockout: sgSLC35F2, 10000 nM	33.7
sgRNA knockout: sgXBP1, 10 nM	110
sgRNA knockout: sgXBP1, 100 nM	104
sgRNA knockout: sgXBP1, 1000 nM	69.4
sgRNA knockout: sgXBP1, 10000 nM	34.7

CC(C)(C)c1cnc(CSc2cnc(NC(=O)C3CCNCC3)s2)o1 [SNS032]
Conditions	relative cell number
sgRNA knockout: sgATF3, 10 nM	108
sgRNA knockout: sgATF3, 100 nM	86
sgRNA knockout: sgATF3, 1000 nM	16.4
sgRNA knockout: sgATF3, 10000 nM	28.1
sgRNA knockout: sgATF4, 10 nM	107
sgRNA knockout: sgATF4, 100 nM	85.9
sgRNA knockout: sgATF4, 1000 nM	20.7
sgRNA knockout: sgATF4, 10000 nM	24.12
sgRNA knockout: sgATF6, 10 nM	106
sgRNA knockout: sgATF6, 100 nM	83.5
sgRNA knockout: sgATF6, 1000 nM	24
sgRNA knockout: sgATF6, 10000 nM	28.7
sgRNA knockout: sgATG7, 10 nM	107
sgRNA knockout: sgATG7, 100 nM	85.9
sgRNA knockout: sgATG7, 1000 nM	18.5
sgRNA knockout: sgATG7, 10000 nM	26.8
sgRNA knockout: sgERN1, 10 nM	107
sgRNA knockout: sgERN1, 100 nM	86.49
sgRNA knockout: sgERN1, 1000 nM	18.8
sgRNA knockout: sgERN1, 10000 nM	28.3
sgRNA knockout: sgHSF1, 10 nM	84.6
sgRNA knockout: sgHSF1, 100 nM	81.6
sgRNA knockout: sgHSF1, 1000 nM	11.1
sgRNA knockout: sgHSF1, 10000 nM	24.9
sgRNA knockout: sgHSF2, 10 nM	101
sgRNA knockout: sgHSF2, 100 nM	96.9
sgRNA knockout: sgHSF2, 1000 nM	16.7
sgRNA knockout: sgHSF2, 10000 nM	29.7
sgRNA knockout: sgKEAP1, 10 nM	107
sgRNA knockout: sgKEAP1, 100 nM	73.7
sgRNA knockout: sgKEAP1, 1000 nM	13.2
sgRNA knockout: sgKEAP1, 10000 nM	22.5
sgRNA knockout: sgNFE2L2, 10 nM	102
sgRNA knockout: sgNFE2L2, 100 nM	81.6
sgRNA knockout: sgNFE2L2, 1000 nM	20.5
sgRNA knockout: sgNFE2L2, 10000 nM	24.3
sgRNA knockout: sgSLC35F2, 10 nM	97.7
sgRNA knockout: sgSLC35F2, 100 nM	85.6
sgRNA knockout: sgSLC35F2, 1000 nM	21.3
sgRNA knockout: sgSLC35F2, 10000 nM	28.4
sgRNA knockout: sgXBP1, 10 nM	101
sgRNA knockout: sgXBP1, 100 nM	83.8
sgRNA knockout: sgXBP1, 1000 nM	18.6
sgRNA knockout: sgXBP1, 10000 nM	26
